According to article PMC12298007 (Pharmaceuticals, 2025):

How the values were obtained:
[1] = general procedure: Fmoc solid-phase peptide synthesis; Rink Amide MBHA; HATU/DIPEA (fragment condensation); conditions: whole synthesis, 220 nm
[2] = general procedure: Fmoc solid-phase peptide synthesis; Rink Amide MBHA resin (RM2); Fmoc-D-Lys(Boc)-Wang resin (PSMA-I&S); HATU/DIPEA (fragment condensation); conditions: late stage modification step, 220 nm

Substance | final HPLC purity [1] [%] | final HPLC purity [2] [%]
DOTA-APipAc-phe-Gln-Trp-Ala-Val-Gly-His-Sta-Leu-NH2 | >95 | 
mas3-tyr-nal-lys(Sub-Lys-urea-Glu) |  | >99
